This is an account of results in publication PMC7312527 (International Journal of Molecular Sciences, 2020).

Amino acid sequences for entries named in this document (tags omitted). Residues count along the entry.
UniProt P22303, residues 52-577: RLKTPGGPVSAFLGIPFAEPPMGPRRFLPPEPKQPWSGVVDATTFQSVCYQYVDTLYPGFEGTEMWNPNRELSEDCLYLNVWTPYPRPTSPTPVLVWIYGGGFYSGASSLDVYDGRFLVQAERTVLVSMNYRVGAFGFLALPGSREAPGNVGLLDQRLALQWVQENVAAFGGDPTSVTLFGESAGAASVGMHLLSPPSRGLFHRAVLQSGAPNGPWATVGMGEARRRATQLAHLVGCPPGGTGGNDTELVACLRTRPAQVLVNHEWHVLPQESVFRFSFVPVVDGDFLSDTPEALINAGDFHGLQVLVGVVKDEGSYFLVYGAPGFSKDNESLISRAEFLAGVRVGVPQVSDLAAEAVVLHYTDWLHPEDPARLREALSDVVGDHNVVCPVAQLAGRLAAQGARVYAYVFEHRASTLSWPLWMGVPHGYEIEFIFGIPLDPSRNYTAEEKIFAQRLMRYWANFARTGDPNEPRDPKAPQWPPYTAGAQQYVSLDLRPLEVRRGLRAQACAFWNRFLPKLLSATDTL
UniProt P27338, residues 1-489: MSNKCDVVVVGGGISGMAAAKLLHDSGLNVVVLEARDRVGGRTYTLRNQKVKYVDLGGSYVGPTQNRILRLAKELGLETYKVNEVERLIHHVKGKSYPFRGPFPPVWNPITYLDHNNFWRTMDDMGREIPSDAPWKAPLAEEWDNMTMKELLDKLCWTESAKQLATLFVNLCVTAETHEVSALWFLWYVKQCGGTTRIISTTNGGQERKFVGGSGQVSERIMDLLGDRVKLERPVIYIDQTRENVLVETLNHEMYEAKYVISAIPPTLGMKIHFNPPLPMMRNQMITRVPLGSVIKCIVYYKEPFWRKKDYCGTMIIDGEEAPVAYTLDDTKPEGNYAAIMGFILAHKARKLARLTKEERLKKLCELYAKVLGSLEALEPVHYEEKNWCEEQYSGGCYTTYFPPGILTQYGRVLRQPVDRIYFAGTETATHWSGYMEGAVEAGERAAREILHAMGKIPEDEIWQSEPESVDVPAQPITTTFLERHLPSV

The target of test [1] is human acetylcholinesterase (AChE), aa 52-577, bait from pGBKT7-hAChE (human) (UniProt P22303). The experiment in a line: two-hybrid; Matchmaker Gold Y2H, small-scale mating (5 mL) of Y2HGold (bait AChE) with Y187 (preys), plated on DDO/X/A agar (Aureobasidin A 200 ng/mL, X-alpha-Gal 40 µg/mL), no hybrid ligand.
Test [2] shares this target. The experiment in a line: yeast three-hybrid; small-scale mating (10 mL) with 10 µM hybrid ligand, plated on DDO/X/A agar with 10 µM hybrid ligand; blue colony moved to QDO/X/A with 10 µM hybrid ligand, then to QDO/X/A without it.

Results are given in words; binding and its absence hold for the method and conditions named.

“human microtubule associated protein tau (MAPT), entire protein (aa 1-758), prey from pGADT7-hMAPT (from UniProt P10636-1 1-758)”: the results for the binding entry in test [1] and in test [2] were “no binding” and “no binding (tested: 10 µM hybrid ligand)”, respectively.

As to “human monoamine oxidase B (MAO B), cytoplasmic domain (aa 1-489), prey from pGADT7-hMAO B (from UniProt P27338 1-489) (domain or fragment)”, the results for the binding entry in test [1] and in test [2] were “no binding” and “no binding (tested: 10 µM hybrid ligand)”, respectively.
